The nature of this assay: qHTS Assay to Find Inhibitors of Chronic Active B-Cell Receptor Signaling. Conditions: ABC-DLBCL IkBa-CBG/CBR reporter, luminescence ratio (green luciferase fused to IkBa over red control in TMD8 lymphoma cells), 4 h. The gist of the method:
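TMD8 ABC-DLBCL cells carrying doxycycline-inducible green luciferase fused to IkappaBalpha plus unfused red luciferase were exposed to compounds (up to 46 uM) for 4 hrs at 37C. Activity came from the overlap-corrected green/red luminescence ratio.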

[1] abbreviates: measured here: CBR red luminescence, cell number.
Setting [2] is: measured here: IkBa-CBG green luminescence.

The list shows a part of the results. Shown are side measurements of this screen, not its main read-out; they come without a call. Most of these compounds were active or inconclusive in the main read-out, so they are no random draw. Potencies come from curve fits of mixed quality, noted in brackets.

One may read the AC50 as the concentration giving half of the maximal activity seen.

For `O=C1Nc2ccccc2/C1=C\C(=O)c1ccccc1`, the AC50 under setting [1] was 11.2 µM [falling, partial curve, poor fit]. Still for that read-out and setting: as for `CCOc1ccccc1OCC(=O)Nc1nnc(C)s1`, the figure is 23.1 µM [falling, single point].

As for `CCn1c(C)cc(/C=C2\SC(=O)N(CC(=O)Nc3ccc(C)c(C)c3)C2=O)c1C`, under setting [1], the AC50 was 0.0891 µM [rising, full curve, poor fit]. Same read-out and setting: as for `CC(=O)c1nn(-c2cccc(C(F)(F)F)c2)c(=O)[nH]c1=O`, the figure is 0.501 µM [rising, partial curve, poor fit]; as for `COc1ccc2c(c1)cc1n2CCN=C1NCCO`, 25.9 µM [rising, single point]. Regarding `CN1C(C(=O)NCc2ccco2)CC2Cn3c(nc4cc5ccccc5cc43)C21` (stereo unspecified), under setting [1], the AC50 is 3.98 µM [rising, full curve, poor fit]. Still for that read-out and setting: the value for `NC(=O)c1cc([N+](=O)[O-])ccc1NCc1ccc(N)cc1` was 20.6 µM [falling, single point]; that for `O=C(CSc1nc2ccccc2o1)N/N=C/c1ccc(C(=O)O)cc1` was 17.8 µM [falling, single point]; that for `Cc1ccc(C)c(N2CCN(C(=O)CCCn3c(=O)c4cccn4c4cccnc43)CC2)c1` was 22.4 µM [falling, single point]. In the case of `Clc1ss/c(=N\c2ccccn2)c1Cl`, under setting [1], the AC50 is 29.1 µM [rising, single point]. On the same count and under the same terms, as for `CCCOc1nc2c(c(=O)n(C)c(=O)n2C)n1C`, the figure is 7.08 µM [falling, full curve, poor fit].

Regarding `COc1ccc(-n2nc([N+](=O)[O-])c(=NCCc3ccccc3)n2O)cc1`, the AC50 under setting [1] was 16.4 µM [rising, partial curve, poor fit]. For `CC(C)(C)NC(=O)C(c1ccncc1)N(Cc1ccc(F)cc1)C(=O)c1ccc(-c2ccccc2)[nH]1` (stereo unspecified), the AC50 under setting [1] was 35.5 µM [falling, single point] and the AC50 under setting [2] is 25.1 µM [rising, partial curve, poor fit]. On to `Cc1ccc(NC(=S)NC(=O)c2ccc(F)cc2)cc1S(=O)(=O)Nc1ccccc1Cl`, for which the AC50 under setting [1] was 3.66 µM [falling, partial curve, poor fit]. With `Cc1cc(C(=O)CSc2nnc(-c3ccccc3)n2C)c(C)n1C`, the AC50 under setting [1] is 1.03 µM [rising, partial curve, poor fit]. With `COc1cccc(/C=N/NC(=O)c2cc3c(OC)cccc3[nH]2)c1OC`, the AC50 under setting [1] is 2.31 µM [falling, partial curve]. In the case of `Cc1ccc(NC(=O)CSc2nncn2-c2ccccn2)cc1Cl`, under setting [1], the AC50 is 2.24 µM [falling, partial curve].

Turning to `Cc1c(C(=O)Nc2nccs2)oc2c(Cl)cccc12`, under setting [1], the AC50 was 0.326 µM [falling, full curve]. The same measure, in the same setting: the value for `O=C(Nc1cccnc1)c1cc(-c2cccc(Cl)c2)on1` was 8.91 µM [falling, partial curve]; that for `O=C(/C=C/c1ccco1)N/C(=C\c1ccccc1)C(=O)NCCc1nc2ccccc2[nH]1` was 8.2 µM [falling, partial curve].

As for `COc1ccc(N/C(C)=C2/C(=O)C(=O)N(CCO)C2c2ccc([N+](=O)[O-])cc2)cc1` (stereo unspecified), the half-maximal activity concentration (AC50) runs as follows: under setting [1], 5.8 µM [falling, single point]; under setting [2], 2.91 µM [rising, partial curve, poor fit]. As for `O=C(NCCc1ccccc1F)c1ccc2c(c1)OCCO2`, the AC50 under setting [1] was 1.41 µM [falling, full curve]. Consider `CN=C(Nc1ccccc1OC)SC1CC(=O)N(c2ccc(C(=O)OC)cc2)C1=O` (stereo unspecified), for which, under setting [1], the concentration at half-maximal activity (AC50) was 0.58 µM [rising, full curve, poor fit].

As to `CCOC(=O)C1(CCOc2ccccc2)CCN(Cc2nccn2CC)CC1`, under setting [1], the AC50 is 0.891 µM [rising, full curve, poor fit]. The same measure, in the same setting: the value for `CC(=O)c1cc(CN2CCC(N3CCC(C(=O)N4CCCC4)CC3)CC2)cs1` was 6.31 µM [falling, partial curve, poor fit].

Turning to `N#C/C(=C\C=C\c1ccccc1)C(=O)NCc1cccnc1`, under setting [1], the AC50 is 6.31 µM [falling, partial curve, poor fit]. Still for that read-out and setting: the value for `COc1cccc(CNC(=O)CN(c2ccc(C(C)C)cc2)S(=O)(=O)c2c(C)noc2C)c1` was 14.1 µM [falling, partial curve, poor fit]. The same measure, in the same setting: the value for `CC(C)(C)NC(=O)COC(=O)c1ccc(Cl)cc1O` was 6.31 µM [rising, single point]. In the case of `Oc1ccc(N=Nc2ccc3ccccc3c2)cc1`, the AC50 under setting [1] is 35.5 µM [falling, single point]. Same read-out and setting: as for `O=C(NCCC1=CCCCC1)C1COc2ccccc2O1` (stereo unspecified), the figure is 6.31 µM [rising, full curve]; as for `NC(=O)C1CC(=O)N(c2ccc(OCc3c(F)cccc3Cl)cc2)C1` (stereo unspecified), 0.224 µM [falling, full curve]; as for `CC(C)[C@H](NC(=O)c1ccccc1)C(=O)OCC(=O)c1c(N)n(C)c(=O)n(C)c1=O`, 2.91 µM [rising, partial curve]. Consider `O=S1(=O)NC2c3ccccc3CC2O1` (stereo unspecified), for which the half-maximal activity concentration (AC50) under setting [1] is 35.5 µM [falling, single point]. Same read-out and setting: as for `O=C(NCCN1CCOCC1)c1cc(-c2ccc(F)cc2)nc2ccccc12`, the figure is 25.9 µM [rising, partial curve]. On the same count and under the same terms, as for `O=C(NNC(=O)c1ccccc1O)c1cccc(Br)c1`, the figure is 2.51 µM [falling, partial curve].

In the case of `CCOC(=O)N1CCN(C(=O)CSCC(=O)Nc2nc(-c3ccccc3)cs2)CC1`, the AC50 was 29.1 µM [falling, single point] under setting [1] and 14.6 µM [rising, partial curve, poor fit] under setting [2]. For the compound `Cc1ccc(C)c2sc(N3CCN(C(=O)C(C)(C)C)CC3)nc12`, under setting [1], the concentration at half-maximal activity (AC50) is 3.16 µM [rising, full curve]. On the same count and under the same terms, the value for `CCc1nnc(NC(=O)c2ccc(NS(=O)(=O)c3ccccc3)cc2)s1` was 1.64 µM [falling, full curve, poor fit]. Still for that read-out and setting: the value for `CN=C(C)c1c(O)c2ccccc2oc1=O` was 16.4 µM [falling, single point]; that for `CCN1C(=O)/C(=C/C=C2\C=CN(CC)c3ccccc32)SC1=S` was 13 µM [rising, partial curve, poor fit].

With `Cc1cn(S(=O)(=O)c2ccc(Br)cc2)cn1`, the half-maximal activity concentration (AC50) under setting [1] is 23.1 µM [rising, single point]. Still for that read-out and setting: the value for `OCc1ncccc1O` was 0.631 µM [falling, full curve, poor fit]; that for `COc1ccc(-n2nnnc2SCC(=O)c2cc3ccccc3o2)cc1` was 8.91 µM [falling, partial curve, poor fit]. The same measure, in the same setting: as for `O=C(Nc1cccc(-c2cn3ccccc3n2)c1)c1cc2ccccc2oc1=O`, the figure is 11.6 µM [falling, partial curve, poor fit]; as for `COc1ccccc1CC(=O)Nc1cccc(C(=O)NN2C(=O)c3ccccc3C2=O)c1`, 14.6 µM [falling, partial curve]. The same measure, in the same setting: as for `Cc1cc2c(ncn2C)c(NS(=O)(=O)c2ccc(Cl)cc2)c1C`, the figure is 10 µM [rising, partial curve, poor fit]; as for `O=C(c1cc2ncccn2n1)N1CCc2c([nH]c3ccccc23)C1c1ccccc1F` (stereo unspecified), 35.5 µM [rising, single point]. On to `COc1ccc(C(=O)NCC(=O)OCC(=O)Nc2ccc(C)c(S(=O)(=O)N(C)C)c2)cc1OC`, for which, under setting [2], the AC50 was 10 µM [falling, partial curve, poor fit]. As for `COc1cc(OC)c2c(-c3cccc(-c4ccc(OC)c(F)c4)c3)cc(=O)oc2c1`, the AC50 reads like this: under setting [1], 2.59 µM [rising, partial curve]; under setting [2], 2.06 µM [falling, partial curve].

Turning to `NS(=O)(=O)c1ccc(N/N=C/c2ccc[nH]2)c([N+](=O)[O-])c1`, the AC50 under setting [1] is 12.6 µM [rising, partial curve, poor fit]. The same measure, in the same setting: the value for `CCN(CC)S(=O)(=O)c1cc(C)ccc1NC(=S)Nc1cccnc1` was 35.5 µM [falling, single point]; that for `COc1ccc(-n2c(C)cc(C(=O)Cn3nc(C(=O)O)c4ccccc4c3=O)c2C)cc1` was 29.1 µM [falling, single point]. On to `CCCc1nc(N2CCOCC2)c2sc(=S)n(-c3ccccc3)c2n1`, for which the half-maximal activity concentration (AC50) under setting [1] was 0.00461 µM [falling, full curve, poor fit]. `CCn1c(SCC(=O)Nc2cccc(C)c2)nc2nc3c(cc2c1=O)COC(C)(C)C3`: the concentration at half-maximal activity (AC50) under setting [1] was 14.1 µM [falling, single point]. `Cc1cc(C)cc(C(=O)Nc2cc3c4c(c2)CC(=O)N4CCC3)c1`: the concentration at half-maximal activity (AC50) under setting [1] was 0.00731 µM [rising, full curve, poor fit]. The same measure, in the same setting: the value for `c1ccc(-c2noc(C34CC5CC(CC(C5)C3)C4)n2)cc1` was 0.0517 µM [rising, full curve, poor fit]; that for `COc1ccc(OC)c(COC(=O)c2cc([N+](=O)[O-])ccc2N2CCOCC2)c1` was 3.66 µM [rising, full curve, poor fit]; that for `COc1cccc2cc(-c3nnc(Nc4c(F)cccc4F)s3)c(=O)oc12` was 1.41 µM [falling, full curve, poor fit]. Still for that read-out and setting: the value for `O=C(Cn1cc([N+](=O)[O-])cn1)Nc1ccn(Cc2c(F)c(F)c(F)c(F)c2F)n1` was 0.184 µM [falling, full curve, poor fit]; that for `COc1ccc(C(=O)Nn2c(SCC(=O)c3ccccc3)nc3ccccc3c2=O)cc1` was 7.94 µM [falling, partial curve]; that for `O=C(c1ccco1)n1nc(-c2ccccc2)nc1SCc1ccccc1` was 0.146 µM [rising, full curve, poor fit]. Same read-out and setting: as for `Cc1nc2ncnn2c(N2CCC(C(=O)NC3CCCC3)CC2)c1Cc1ccccc1`, the figure is 2.59 µM [falling, partial curve, poor fit].

These data come from PubChem BioAssay AID493014 (National Center for Advancing Translational Sciences (NCATS), 2011).
